Measurements published in doi:10.1101/2021.10.21.465349.
No constants are given. Whether binding was seen depends on the method and setting. Binding seen in cells or lysates may run through a third protein. Some entries that bind do so weakly or less than the wild type.

Amino acid sequences for entries named in this document (tags omitted).
UniProt Q6XZL8: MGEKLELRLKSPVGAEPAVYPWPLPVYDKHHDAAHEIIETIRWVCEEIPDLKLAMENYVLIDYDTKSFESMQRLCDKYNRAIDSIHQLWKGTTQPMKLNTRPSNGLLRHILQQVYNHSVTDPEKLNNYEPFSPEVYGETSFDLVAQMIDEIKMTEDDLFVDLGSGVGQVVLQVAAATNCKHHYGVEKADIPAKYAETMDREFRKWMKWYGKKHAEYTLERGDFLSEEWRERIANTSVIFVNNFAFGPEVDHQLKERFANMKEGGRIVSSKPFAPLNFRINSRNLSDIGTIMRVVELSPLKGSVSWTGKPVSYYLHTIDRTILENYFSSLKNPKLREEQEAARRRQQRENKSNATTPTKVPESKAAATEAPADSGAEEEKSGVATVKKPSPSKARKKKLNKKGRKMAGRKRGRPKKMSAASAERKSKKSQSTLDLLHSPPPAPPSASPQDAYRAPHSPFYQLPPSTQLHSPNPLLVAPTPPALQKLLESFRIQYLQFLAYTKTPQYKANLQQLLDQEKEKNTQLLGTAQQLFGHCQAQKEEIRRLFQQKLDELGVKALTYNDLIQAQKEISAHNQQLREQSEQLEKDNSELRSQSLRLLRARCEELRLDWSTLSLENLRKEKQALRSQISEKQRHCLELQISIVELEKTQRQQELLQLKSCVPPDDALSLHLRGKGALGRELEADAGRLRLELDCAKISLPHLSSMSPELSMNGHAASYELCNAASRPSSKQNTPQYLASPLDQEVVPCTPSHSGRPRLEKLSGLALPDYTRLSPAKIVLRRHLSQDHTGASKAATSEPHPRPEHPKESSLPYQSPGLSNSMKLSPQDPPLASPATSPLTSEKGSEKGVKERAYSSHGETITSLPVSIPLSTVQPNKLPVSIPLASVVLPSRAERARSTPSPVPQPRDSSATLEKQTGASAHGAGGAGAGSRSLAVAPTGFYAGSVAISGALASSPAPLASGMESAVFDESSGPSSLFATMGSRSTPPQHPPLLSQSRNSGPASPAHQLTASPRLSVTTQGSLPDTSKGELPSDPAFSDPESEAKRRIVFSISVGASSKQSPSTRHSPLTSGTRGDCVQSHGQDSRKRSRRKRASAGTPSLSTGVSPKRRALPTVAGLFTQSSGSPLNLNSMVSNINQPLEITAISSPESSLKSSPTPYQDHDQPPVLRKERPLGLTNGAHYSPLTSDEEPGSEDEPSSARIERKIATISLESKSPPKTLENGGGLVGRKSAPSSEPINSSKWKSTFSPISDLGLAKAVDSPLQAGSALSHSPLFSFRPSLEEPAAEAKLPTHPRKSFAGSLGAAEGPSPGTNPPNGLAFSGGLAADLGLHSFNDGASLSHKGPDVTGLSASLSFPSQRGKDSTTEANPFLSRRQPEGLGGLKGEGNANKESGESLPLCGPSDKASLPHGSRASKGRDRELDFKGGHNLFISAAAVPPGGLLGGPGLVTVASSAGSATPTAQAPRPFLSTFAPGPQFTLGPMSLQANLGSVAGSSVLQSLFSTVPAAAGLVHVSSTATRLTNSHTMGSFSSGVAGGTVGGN
UniProt Q6PDQ2: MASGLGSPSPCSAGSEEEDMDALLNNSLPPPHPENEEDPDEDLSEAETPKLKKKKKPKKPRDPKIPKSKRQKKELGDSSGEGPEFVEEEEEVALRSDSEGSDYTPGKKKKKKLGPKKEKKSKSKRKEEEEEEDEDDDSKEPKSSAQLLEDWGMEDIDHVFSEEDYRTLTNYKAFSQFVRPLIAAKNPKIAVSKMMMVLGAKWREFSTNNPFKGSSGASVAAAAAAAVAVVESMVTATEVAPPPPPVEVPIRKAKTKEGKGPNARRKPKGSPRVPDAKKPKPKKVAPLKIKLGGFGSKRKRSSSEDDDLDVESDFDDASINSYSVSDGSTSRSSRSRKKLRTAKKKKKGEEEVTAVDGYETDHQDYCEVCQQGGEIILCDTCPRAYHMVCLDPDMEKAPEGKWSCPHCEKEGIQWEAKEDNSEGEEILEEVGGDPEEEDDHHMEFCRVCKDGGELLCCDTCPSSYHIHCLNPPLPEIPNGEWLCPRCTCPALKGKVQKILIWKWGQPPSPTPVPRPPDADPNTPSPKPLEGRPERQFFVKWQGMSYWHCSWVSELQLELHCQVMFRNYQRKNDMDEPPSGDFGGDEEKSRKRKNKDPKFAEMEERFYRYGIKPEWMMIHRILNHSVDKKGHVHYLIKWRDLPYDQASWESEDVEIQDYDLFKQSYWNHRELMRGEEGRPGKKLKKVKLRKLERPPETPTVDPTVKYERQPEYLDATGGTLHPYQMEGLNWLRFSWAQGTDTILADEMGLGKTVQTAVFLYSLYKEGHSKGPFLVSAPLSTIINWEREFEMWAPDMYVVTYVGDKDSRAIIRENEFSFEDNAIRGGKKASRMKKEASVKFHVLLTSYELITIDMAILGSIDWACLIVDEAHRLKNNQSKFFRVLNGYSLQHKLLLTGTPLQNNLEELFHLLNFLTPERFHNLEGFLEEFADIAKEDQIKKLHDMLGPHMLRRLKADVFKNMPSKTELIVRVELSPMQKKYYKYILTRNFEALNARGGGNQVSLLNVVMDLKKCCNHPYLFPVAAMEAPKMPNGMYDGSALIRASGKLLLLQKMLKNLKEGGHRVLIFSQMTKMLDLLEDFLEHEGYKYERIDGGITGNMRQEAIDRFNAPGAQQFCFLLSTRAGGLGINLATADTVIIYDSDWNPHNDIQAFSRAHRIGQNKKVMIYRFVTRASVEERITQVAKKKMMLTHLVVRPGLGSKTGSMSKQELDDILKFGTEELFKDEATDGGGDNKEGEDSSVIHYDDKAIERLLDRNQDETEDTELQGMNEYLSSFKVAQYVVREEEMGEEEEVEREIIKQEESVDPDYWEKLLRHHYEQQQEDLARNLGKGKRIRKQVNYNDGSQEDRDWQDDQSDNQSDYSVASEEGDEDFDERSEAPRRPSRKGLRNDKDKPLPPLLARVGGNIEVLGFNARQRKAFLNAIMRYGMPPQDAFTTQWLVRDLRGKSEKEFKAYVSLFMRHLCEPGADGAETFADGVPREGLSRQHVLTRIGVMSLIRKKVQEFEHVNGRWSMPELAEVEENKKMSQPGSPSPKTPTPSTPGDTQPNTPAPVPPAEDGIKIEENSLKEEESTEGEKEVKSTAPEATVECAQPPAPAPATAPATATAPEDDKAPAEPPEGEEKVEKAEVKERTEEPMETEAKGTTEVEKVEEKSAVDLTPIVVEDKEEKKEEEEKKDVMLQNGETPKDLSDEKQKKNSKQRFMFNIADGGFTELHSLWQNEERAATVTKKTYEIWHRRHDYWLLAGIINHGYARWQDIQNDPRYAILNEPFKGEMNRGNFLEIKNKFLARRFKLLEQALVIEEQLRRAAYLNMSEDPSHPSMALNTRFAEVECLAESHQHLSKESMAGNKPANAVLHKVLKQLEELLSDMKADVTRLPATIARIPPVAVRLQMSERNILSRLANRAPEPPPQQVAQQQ
UniProt Q91ZW3: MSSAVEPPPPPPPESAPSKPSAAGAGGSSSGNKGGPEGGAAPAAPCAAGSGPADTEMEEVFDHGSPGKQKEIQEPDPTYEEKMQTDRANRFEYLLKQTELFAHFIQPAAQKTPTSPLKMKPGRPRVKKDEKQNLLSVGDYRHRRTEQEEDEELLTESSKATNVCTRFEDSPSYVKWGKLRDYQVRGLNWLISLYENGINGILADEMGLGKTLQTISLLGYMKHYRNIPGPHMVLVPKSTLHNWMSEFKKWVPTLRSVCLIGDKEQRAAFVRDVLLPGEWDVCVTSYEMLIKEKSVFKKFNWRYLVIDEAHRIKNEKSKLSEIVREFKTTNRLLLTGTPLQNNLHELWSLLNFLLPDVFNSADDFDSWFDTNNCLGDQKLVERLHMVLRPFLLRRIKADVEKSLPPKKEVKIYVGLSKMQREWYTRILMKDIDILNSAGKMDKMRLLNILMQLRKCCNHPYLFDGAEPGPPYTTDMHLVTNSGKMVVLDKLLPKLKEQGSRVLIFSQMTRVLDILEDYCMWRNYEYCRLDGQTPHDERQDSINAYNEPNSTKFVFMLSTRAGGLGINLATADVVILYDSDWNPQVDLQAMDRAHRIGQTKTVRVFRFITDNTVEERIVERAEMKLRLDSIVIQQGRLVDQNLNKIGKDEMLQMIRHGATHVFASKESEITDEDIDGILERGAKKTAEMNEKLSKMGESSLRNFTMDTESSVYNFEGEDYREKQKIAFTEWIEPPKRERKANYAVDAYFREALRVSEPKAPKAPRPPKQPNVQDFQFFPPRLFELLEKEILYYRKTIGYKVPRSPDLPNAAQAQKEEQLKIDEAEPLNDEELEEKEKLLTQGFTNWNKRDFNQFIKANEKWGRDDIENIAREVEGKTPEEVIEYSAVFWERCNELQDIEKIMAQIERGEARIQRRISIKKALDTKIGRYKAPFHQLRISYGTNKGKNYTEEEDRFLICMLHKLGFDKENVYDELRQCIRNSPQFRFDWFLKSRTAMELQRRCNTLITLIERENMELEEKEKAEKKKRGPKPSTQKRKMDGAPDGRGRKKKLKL

Target: endogenous DOT1L (mouse (endogenous in V6.5 mESCs)) (UniProt Q6XZL8)
Assay: co-IP

CHD4 (from UniProt Q6PDQ2 1-1915) (enzyme)
binding: binds

SMARCA5 (SNF2H) (from UniProt Q91ZW3 1-1051) (enzyme)
binding: binds

B1: HMGA1 (High Mobility Group protein A1) (protein, UniProt P17095 1-107)
chain: MSESGSKSSQPLASKQEKDGTEKRGRGRPRKQPPVSPGTALVGSQKEPSEVPTPKRPRGRPKGSKNKGAAKTRKVTTAPGRKPRGRPKKLEKEEEEGISQESSEEEQ
binding: binds
